This is an account of results in PubChem BioAssay AID487 (Columbia University Molecular Screening Center, 2006).

This is one part of the list.

The experiment is described as follows: endothelial E-selectin expression blockers – imaging, HUVEC, immunofluorescence, MLSMR starter and 10KST1 sets, primary screen (AID 487).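 Note: 100% = median nuclei count of all wells on the same plate.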 As to conditions: HUVEC TNFalpha-induced E-selectin immunofluorescence imaging; measured here: cell number, toxicity; at 2 µM.
With `CCN(CC)CC(O)COC(=O)C(O)(c1ccccc1)C1CCCCC1` (stereo not drawn), the nuclei count stood at 189%. Next, `CP(=O)(Nc1ccccn1)Oc1ccccc1` (stereo not drawn): 78.3%. As for `O=P(Nc1nccs1)(c1ccccc1)c1ccccc1`, the figure is 130%; as for `CP(=O)(Nc1ccc2c(c1)OCCO2)Oc1ccccc1` (stereo not drawn), 116%. As for `CN(C)CCOC(=O)C(O)(c1ccccc1)C1CCCCC1` (stereo not drawn), the figure is 97.8%; as for `Cc1nn(-c2ccccc2)c2c1P(=O)(N1CCOCC1)N(C)C(c1ccccc1)=N2` (stereo not drawn), 110%; as for `Cc1ccc(OCC(=O)OC2CN3CCC2CC3)cc1` (stereo not drawn), 162%. With `Cc1cccc(OCC(=O)OC2CN3CCC2CC3)c1` (stereo not drawn), the nuclei count worked out at 142%.

Regarding `Cc1ccc(C)c(NP(C)(=O)Oc2ccccc2)c1` (stereo not drawn), the nuclei count was determined as 109%. `CCOP1(=S)c2c(C)nn(CCC#N)c2N=C(c2ccccc2F)N1C` (stereo not drawn) came in with a nuclei count of 111%.

Compound `O=C(COc1ccccc1)OC1CN2CCC1CC2` (stereo not drawn) registered a nuclei count of 85%. The compound `COP1(=S)c2c(C)nn(CCC#N)c2N=C(c2ccc(F)cc2)N1C` (stereo not drawn) had a nuclei count of 109%. In the case of `CP(=S)(Nn1cnnc1)Oc1ccccc1` (stereo not drawn), the nuclei count is 84.3%.
